The list shows a part of the results.
How the values were obtained:
Experiment in all cases: log2 fold change, soluble protein after heating vs DMSO (PISA); higher = thermal stabilisation; K562 lysate, 10 uM; active = over 0.2 and 3.5 SD of the protein, either way, in both replicates (recomputed)
erlotinib = compound: C#Cc1cccc(Nc2ncnc3cc(OCCOC)c(OCCOC)cc23)c1 [erlotinib]
In short: (§1)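 Thermal stability, expressed as log-two fold change relative to solvent controls, is given from duplicates. Crude K562 extract in PBS pH 7.4 with 1 mM MgCl2, at 1 mg/mL protein, was treated with 10 μM compound for 30 min and heated in aliquots for 3 min across 48°C-58°C. After pooling, adjustment to 0.5% NP-40 at 4°C and centrifugation at 21,000xg for 90 min, supernatant protein was measured by TMTpro 16plex LC-MS/MS with channel sums equalised.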

The chains behind the UniProt entries cited, without tags or fusion partners. Where a name states a change or a piece, a line headed by the entry shows the natural chain unless it says otherwise.
UniProt P20339: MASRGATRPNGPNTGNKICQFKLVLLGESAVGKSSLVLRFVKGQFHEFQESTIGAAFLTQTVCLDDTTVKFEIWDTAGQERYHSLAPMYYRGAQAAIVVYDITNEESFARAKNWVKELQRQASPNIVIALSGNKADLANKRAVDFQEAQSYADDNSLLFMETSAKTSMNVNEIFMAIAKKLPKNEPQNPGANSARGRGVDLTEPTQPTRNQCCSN
UniProt Q13637: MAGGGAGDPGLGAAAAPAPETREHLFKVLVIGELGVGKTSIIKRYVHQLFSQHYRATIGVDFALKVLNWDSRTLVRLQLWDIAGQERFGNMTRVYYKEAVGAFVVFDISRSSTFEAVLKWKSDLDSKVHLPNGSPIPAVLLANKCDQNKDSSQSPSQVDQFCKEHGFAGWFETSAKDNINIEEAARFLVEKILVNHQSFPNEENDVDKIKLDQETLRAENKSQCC
UniProt Q9NXS2: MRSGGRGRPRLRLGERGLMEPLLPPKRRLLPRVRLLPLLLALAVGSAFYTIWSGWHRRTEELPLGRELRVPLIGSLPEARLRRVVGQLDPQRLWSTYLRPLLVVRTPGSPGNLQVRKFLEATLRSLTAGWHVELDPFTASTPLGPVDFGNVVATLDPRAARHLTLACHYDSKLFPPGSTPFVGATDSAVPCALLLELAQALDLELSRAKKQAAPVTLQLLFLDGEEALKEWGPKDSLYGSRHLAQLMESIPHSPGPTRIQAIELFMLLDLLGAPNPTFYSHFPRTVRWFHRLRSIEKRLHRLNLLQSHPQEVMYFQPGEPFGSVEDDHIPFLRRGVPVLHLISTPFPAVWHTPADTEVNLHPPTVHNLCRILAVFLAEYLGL
UniProt Q9H5N1: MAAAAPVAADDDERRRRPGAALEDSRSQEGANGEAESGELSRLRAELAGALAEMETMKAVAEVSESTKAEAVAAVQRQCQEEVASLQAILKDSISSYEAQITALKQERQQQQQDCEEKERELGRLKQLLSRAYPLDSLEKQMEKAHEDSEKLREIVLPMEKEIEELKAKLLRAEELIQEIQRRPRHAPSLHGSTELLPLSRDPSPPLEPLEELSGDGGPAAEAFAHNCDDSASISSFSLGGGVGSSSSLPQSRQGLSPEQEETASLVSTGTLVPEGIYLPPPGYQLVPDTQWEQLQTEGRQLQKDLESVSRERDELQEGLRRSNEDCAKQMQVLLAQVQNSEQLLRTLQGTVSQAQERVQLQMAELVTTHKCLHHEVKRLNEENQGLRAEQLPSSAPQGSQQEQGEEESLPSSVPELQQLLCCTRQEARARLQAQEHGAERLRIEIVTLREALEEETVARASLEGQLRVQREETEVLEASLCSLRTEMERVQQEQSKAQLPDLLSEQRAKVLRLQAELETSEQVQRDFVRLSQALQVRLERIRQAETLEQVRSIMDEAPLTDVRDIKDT
UniProt Q15907: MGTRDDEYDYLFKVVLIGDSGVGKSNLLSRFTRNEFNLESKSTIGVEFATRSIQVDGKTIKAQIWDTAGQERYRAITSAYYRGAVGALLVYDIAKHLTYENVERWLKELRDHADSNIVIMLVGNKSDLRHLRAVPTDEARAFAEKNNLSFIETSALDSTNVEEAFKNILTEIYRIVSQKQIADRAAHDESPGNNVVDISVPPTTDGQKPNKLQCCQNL
UniProt P61006: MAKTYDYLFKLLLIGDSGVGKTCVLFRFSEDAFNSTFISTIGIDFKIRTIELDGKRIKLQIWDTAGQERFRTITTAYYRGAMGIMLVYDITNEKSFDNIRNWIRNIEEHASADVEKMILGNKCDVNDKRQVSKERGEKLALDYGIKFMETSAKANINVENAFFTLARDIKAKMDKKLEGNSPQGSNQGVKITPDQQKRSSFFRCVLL
UniProt Q7Z7A4: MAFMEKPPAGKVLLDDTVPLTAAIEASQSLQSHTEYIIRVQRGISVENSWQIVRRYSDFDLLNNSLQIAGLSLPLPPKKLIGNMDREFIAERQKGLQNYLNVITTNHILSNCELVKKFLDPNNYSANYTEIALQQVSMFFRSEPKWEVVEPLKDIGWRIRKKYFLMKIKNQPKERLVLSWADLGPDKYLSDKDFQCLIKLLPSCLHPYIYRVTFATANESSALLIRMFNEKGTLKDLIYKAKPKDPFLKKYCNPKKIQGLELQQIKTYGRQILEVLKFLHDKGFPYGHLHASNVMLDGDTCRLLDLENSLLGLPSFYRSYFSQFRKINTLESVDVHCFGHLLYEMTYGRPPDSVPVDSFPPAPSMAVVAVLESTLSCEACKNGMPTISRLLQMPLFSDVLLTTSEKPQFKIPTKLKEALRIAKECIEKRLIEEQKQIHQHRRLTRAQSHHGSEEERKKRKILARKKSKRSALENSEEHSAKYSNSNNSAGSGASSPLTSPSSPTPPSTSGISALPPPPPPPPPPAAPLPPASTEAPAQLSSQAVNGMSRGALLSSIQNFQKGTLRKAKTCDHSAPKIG
UniProt Q9UI14, whole entry, looked up: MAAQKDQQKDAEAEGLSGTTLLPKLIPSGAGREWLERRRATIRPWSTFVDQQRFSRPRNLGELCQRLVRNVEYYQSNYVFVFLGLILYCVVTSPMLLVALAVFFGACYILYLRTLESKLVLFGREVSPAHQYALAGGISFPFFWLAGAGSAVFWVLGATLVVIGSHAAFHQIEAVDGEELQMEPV
UniProt Q9Y3T6: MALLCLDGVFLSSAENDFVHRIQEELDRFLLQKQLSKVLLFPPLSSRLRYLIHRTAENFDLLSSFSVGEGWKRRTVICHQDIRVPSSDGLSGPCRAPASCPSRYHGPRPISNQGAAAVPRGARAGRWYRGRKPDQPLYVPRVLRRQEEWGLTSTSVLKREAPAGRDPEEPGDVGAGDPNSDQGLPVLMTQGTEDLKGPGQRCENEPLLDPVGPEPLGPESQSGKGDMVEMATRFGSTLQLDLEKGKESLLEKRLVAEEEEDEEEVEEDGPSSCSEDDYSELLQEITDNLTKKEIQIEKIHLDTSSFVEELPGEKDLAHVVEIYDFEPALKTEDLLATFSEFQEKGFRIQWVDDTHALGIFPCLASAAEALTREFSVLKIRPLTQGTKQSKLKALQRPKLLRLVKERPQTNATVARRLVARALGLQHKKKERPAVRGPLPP
UniProt P09417: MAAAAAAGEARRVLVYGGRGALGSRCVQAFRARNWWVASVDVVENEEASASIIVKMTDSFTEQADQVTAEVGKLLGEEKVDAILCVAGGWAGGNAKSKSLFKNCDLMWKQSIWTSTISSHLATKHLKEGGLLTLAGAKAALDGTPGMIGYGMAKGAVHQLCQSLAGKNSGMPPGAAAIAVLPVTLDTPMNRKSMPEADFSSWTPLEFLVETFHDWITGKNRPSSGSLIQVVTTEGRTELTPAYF
UniProt Q3YEC7: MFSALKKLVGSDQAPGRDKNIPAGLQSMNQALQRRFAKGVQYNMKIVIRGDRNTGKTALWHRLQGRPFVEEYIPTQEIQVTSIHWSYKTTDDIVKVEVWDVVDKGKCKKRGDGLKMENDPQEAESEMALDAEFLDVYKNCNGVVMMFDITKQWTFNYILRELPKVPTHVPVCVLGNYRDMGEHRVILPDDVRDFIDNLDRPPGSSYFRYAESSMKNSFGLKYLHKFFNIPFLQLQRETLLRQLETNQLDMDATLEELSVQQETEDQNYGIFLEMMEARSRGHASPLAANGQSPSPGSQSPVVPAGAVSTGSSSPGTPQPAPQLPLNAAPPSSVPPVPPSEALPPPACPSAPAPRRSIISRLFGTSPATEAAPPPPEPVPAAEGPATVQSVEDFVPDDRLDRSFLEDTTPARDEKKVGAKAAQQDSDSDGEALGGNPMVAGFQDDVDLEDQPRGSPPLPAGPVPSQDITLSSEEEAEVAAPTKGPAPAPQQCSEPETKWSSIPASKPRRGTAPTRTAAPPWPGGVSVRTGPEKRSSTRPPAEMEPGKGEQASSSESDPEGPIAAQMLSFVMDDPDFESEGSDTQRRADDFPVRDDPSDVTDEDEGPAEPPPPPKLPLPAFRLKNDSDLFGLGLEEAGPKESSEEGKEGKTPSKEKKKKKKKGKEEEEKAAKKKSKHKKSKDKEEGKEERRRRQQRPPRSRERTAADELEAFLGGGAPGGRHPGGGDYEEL
UniProt Q7Z6M1: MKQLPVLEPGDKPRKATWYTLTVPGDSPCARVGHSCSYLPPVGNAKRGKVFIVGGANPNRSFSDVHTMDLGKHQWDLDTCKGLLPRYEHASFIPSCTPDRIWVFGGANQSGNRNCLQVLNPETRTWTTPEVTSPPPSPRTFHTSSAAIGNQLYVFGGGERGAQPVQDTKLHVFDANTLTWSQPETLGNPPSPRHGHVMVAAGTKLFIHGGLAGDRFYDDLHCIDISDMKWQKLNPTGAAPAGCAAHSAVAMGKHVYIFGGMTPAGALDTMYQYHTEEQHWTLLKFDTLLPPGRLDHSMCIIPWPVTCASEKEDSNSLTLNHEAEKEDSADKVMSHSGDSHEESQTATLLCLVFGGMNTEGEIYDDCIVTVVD
UniProt P61225: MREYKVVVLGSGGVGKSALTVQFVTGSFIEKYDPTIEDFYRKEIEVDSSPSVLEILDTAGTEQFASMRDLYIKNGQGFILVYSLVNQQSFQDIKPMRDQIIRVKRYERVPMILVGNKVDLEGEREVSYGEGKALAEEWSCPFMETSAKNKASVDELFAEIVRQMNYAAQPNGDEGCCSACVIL
UniProt Q9NRW1: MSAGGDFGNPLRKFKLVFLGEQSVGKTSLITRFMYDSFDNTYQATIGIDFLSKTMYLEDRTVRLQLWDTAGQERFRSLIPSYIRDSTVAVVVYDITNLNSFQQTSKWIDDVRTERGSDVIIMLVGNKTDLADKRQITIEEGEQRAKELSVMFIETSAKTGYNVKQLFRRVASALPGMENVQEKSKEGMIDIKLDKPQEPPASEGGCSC
UniProt P51159: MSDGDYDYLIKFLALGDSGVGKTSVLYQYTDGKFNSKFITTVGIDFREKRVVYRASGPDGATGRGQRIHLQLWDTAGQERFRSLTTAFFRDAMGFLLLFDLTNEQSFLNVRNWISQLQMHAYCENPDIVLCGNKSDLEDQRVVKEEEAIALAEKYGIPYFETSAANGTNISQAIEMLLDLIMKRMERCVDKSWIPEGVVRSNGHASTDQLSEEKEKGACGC
UniProt P54727: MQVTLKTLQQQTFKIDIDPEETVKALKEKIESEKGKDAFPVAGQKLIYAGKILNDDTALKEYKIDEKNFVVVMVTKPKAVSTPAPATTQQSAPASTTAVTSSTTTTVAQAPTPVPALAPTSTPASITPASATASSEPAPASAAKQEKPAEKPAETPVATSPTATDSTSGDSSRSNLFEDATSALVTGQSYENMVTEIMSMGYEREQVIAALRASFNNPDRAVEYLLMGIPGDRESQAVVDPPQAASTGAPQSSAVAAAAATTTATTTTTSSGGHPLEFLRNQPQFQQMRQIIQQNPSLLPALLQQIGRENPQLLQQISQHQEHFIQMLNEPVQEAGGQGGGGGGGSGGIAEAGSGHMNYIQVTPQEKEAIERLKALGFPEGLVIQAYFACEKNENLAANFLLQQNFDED
UniProt Q13905: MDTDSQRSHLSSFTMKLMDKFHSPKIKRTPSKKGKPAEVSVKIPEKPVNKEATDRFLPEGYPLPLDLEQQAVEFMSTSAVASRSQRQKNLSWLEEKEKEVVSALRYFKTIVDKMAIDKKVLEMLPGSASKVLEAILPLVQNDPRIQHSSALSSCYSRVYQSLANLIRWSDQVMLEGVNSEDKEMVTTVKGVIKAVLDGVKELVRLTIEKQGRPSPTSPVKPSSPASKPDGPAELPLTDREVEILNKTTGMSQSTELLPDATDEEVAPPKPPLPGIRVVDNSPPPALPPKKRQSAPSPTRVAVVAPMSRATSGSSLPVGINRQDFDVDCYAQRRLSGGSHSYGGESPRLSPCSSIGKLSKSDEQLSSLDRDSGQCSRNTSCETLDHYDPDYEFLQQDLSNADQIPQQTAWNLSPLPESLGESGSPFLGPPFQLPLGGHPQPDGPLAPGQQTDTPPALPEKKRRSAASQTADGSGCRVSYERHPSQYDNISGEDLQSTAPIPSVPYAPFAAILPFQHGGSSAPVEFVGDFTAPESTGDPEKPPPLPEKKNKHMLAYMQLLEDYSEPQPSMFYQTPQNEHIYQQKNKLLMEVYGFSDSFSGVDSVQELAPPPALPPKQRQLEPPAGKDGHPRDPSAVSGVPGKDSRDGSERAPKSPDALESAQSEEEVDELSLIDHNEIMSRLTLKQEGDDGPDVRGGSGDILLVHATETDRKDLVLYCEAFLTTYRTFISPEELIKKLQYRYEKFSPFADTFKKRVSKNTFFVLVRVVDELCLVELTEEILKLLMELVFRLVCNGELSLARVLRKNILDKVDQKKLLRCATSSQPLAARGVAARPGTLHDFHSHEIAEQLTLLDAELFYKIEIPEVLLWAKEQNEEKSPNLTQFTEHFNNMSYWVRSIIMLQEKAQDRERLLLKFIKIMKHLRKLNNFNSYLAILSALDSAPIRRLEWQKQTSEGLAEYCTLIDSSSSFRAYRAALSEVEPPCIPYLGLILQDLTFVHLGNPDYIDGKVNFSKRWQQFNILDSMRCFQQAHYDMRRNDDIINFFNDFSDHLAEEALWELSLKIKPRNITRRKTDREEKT

[1] = compound: C/C(=N\NC(=O)C1=CC(=CC=C1)S(=O)(=O)N2CCOCC2)/C3=C(C=CC(=C3)Cl)O
In short: as §1

[2] = compound: C1=CC(=CC=C1C2=NC3=C(N2)C=C(C=C3)C(=O)N)OC4=CC=C(C=C4)Cl
In short: as §1

[3] = compound: C1=CC2=C(C=CC(=C2)/C=C\3/C(=O)NC(=NCC4=CC=CS4)S3)N=C1
In short: as §1

[4] = compound: C1=CC2=NC=CN=C2C=C1/C=C/3\C(=O)NC(=O)S3
In short: as §1

[5] = compound: C1=CC=C(C=C1)C2=NC(=C(N2)C3=CC=NC=C3)C4=CC(=C(C=C4)Cl)O
In short: as §1

[6] = compound: C1=CC=C2C(=C1)C3=NNC4=CC=CC(=C43)C2=O
In short: as §1

[7] = compound: C1CCN(C1)C(=O)NC2=CC=CC(=C2)NC3=NC=C(C(=N3)NCCC4=CN=CN4)Br
In short: as §1

[8] = compound: C1CN(CCC1(CC2=CC=C(C=C2)Cl)N)C3=NC=NC4=C3C=CN4
In short: as §1

IRAK-1-4 Inhibitor I = compound: C1COCCN1CCN2C3=CC=CC=C3N=C2NC(=O)C4=CC(=CC=C4)[N+](=O)[O-] [IRAK-1-4 Inhibitor I]
In short: as §1

Measured: log2 fold change

RAB35 (UniProt Q15286)
inactive: erlotinib -0.045 | [1] 0.008 | [2] 0.035 | [3] 0.006 | [4] -0.043 | [5] 0.01 | [6] -0.028 | [7] -0.014 | [8] 0 | IRAK-1-4 Inhibitor I -0.056

RAB5A (UniProt P20339)
inactive: erlotinib -0.003 | [1] -0.074 | [2] 0.085 | [3] 0.044 | [4] 0.026 | [5] 0.015 | [6] 0.023 | [7] -0.008 | [8] 0.016 | IRAK-1-4 Inhibitor I -0.016

RAB32 (UniProt Q13637)
inactive: erlotinib -0.023 | [1] -0.047 | [2] -0.003 | [3] 0.008 | [4] -0.041 | [5] 0.002 | [6] 0.015 | [7] 0.018 | [8] 0.088 | IRAK-1-4 Inhibitor I 0.019

QPCTL (UniProt Q9NXS2)
inactive: erlotinib -0.03 | [1] -0.164 | [2] -0.066 | [3] 0.058 | [4] -0.003 | [5] 0.01 | [6] 0.069 | [7] -0.047 | [8] 0.006 | IRAK-1-4 Inhibitor I -0.042

RANBP10 (UniProt Q6VN20)
inactive: erlotinib -0.051 | [1] 0.05 | [2] 0.02 | [3] 0.001 | [4] -0.026 | [5] 0.027 | [6] -0.014 | [7] 0.032 | [8] -0.027 | IRAK-1-4 Inhibitor I 0.027

QPRT (UniProt Q15274)
inactive: erlotinib 0.041 | [1] 0.02 | [2] 0.012 | [3] -0.003 | [4] -0.016 | [5] -0.003 | [6] -0.003 | [7] -0.012 | [8] 0.026 | IRAK-1-4 Inhibitor I 0.027

RAE1 (UniProt P78406)
inactive: erlotinib 0.045 | [1] -0.036 | [2] 0.014 | [3] 0.046 | [4] 0.012 | [5] -0.021 | [6] -0.007 | [7] -0.019 | [8] 0.033 | IRAK-1-4 Inhibitor I -0.024

2 successive records already listed, for reference:
QPRT (UniProt Q15274)
inactive: erlotinib 0.041 | [1] 0.02 | [2] 0.012 | [3] -0.003 | [4] -0.016 | [5] -0.003 | [6] -0.003 | [7] -0.012 | [8] 0.026 | IRAK-1-4 Inhibitor I 0.027

RAE1 (UniProt P78406)
inactive: erlotinib 0.045 | [1] -0.036 | [2] 0.014 | [3] 0.046 | [4] 0.012 | [5] -0.021 | [6] -0.007 | [7] -0.019 | [8] 0.033 | IRAK-1-4 Inhibitor I -0.024

Later entries.

RAP1A (UniProt P62834)
inactive: erlotinib 0.006 | [1] -0.056 | [2] 0.016 | [3] -0.114 | [4] -0.011 | [5] 0.006 | [6] 0.001 | [7] 0.01 | [8] 0.007 | IRAK-1-4 Inhibitor I 0.026

RABEP2 (UniProt Q9H5N1)
inactive: erlotinib 0.05 | [1] -0.011 | [2] 0.029 | [3] -0.045 | [4] -0.04 | [5] 0.003 | [6] -0.074 | [7] 0.034 | [8] -0.006 | IRAK-1-4 Inhibitor I -0.001

RACK1 (UniProt P63244)
inactive: erlotinib 0.003 | [1] 0.05 | [2] -0.011 | [3] -0.013 | [4] -0.003 | [5] 0.012 | [6] 0.001 | [7] -0.005 | [8] 0.003 | IRAK-1-4 Inhibitor I 0.002

R3HCC1L, A0A384DVK4
inactive: erlotinib -0.011 | [1] -0.222 | [2] 0.056 | [3] -0.05 | [4] -0.017 | [5] 0.023 | [6] -0.008 | [7] 0.015 | [8] 0.079 | IRAK-1-4 Inhibitor I 0.021

RAB11B (UniProt Q15907)
inactive: erlotinib 0.012 | [1] 0.003 | [2] 0.017 | [3] 0.005 | [4] 0.013 | [5] -0.018 | [6] -0.045 | [7] -0.016 | [8] -0.004 | IRAK-1-4 Inhibitor I 0.012

RAB8A (UniProt P61006)
inactive: erlotinib -0.087 | [1] 0.009 | [2] -0.042 | [3] -0.004 | [4] 0.004 | [5] -0.03 | [6] 0.04 | [7] 0.022 | [8] -0.043 | IRAK-1-4 Inhibitor I -0.035

QTRT1 (UniProt Q9BXR0)
inactive: erlotinib -0.029 | [1] -0.044 | [2] -0.009 | [3] 0.022 | [4] 0.003 | [5] 0.034 | [6] -0.036 | [7] 0.011 | [8] -0.005 | IRAK-1-4 Inhibitor I 0.018

PXK (UniProt Q7Z7A4)
inactive: erlotinib 0.044 | [1] 0.042 | [2] 0.023 | [3] 0.04 | [4] 0.005 | [5] 0.022 | [6] -0.05 | [7] -0.008 | [8] 0.006 | IRAK-1-4 Inhibitor I -0.018

RABAC1 (UniProt Q9UI14)
inactive: erlotinib -0.004 | [1] 0.154 | [2] 0.044 | [3] 0.017 | [4] 0.003 | [5] 0 | [6] 0.014 | [7] 0.024 | [8] -0.023 | IRAK-1-4 Inhibitor I 0.106

RALB isoform 2 (UniProt P11234)
inactive: erlotinib -0.01 | [1] -0.094 | [2] 0.009 | [3] -0.01 | [4] -0.002 | [5] 0.016 | [6] -0.058 | [7] 0.009 | [8] -0.005 | IRAK-1-4 Inhibitor I 0.046

R3HCC1 (UniProt Q9Y3T6)
inactive: erlotinib -0.015 | [1] -0.118 | [2] 0.055 | [3] 0.074 | [4] -0.086 | [5] 0.071 | [6] -0.008 | [7] 0.006 | [8] -0.016 | IRAK-1-4 Inhibitor I -0.044

QDPR (UniProt P09417)
inactive: erlotinib 0.001 | [1] 0.022 | [2] 0.012 | [3] 0.141 | [4] -0.021 | [5] 0 | [6] 0.014 | [7] -0.014 | [8] 0.043 | IRAK-1-4 Inhibitor I -0.013

RABL6 (UniProt Q3YEC7)
inactive: erlotinib -0.034 | [1] 0.03 | [2] 0.011 | [3] -0.017 | [4] -0.017 | [5] 0.014 | [6] 0.011 | [7] -0.011 | [8] 0.019 | IRAK-1-4 Inhibitor I -0.014

RAF1 isoform 2 (UniProt P04049)
inactive: erlotinib -0.011 | [1] -0.033 | [2] -0.016 | [3] -0.072 | [4] -0.113 | [5] -0.009 | [6] 0.007 | [7] 0.036 | [8] -0.044 | IRAK-1-4 Inhibitor I -0.058

RABEPK (UniProt Q7Z6M1)
inactive: erlotinib -0.01 | [1] 0.014 | [2] 0.012 | [3] 0.004 | [4] 0.032 | [5] 0.007 | [6] -0.024 | [7] -0.03 | [8] -0.032 | IRAK-1-4 Inhibitor I 0.014

RAP2B (UniProt P61225)
inactive: erlotinib 0.017 | [1] -0.364 | [2] 0.002 | [3] -0.004 | [4] -0.023 | [5] -0.009 | [6] -0.032 | [7] -0.028 | [8] 0.068 | IRAK-1-4 Inhibitor I 0

RAB6B (UniProt Q9NRW1)
inactive: erlotinib 0 | [1] -0.088 | [2] 0.017 | [3] 0.014 | [4] -0.038 | [5] 0.001 | [6] 0.024 | [7] 0.025 | [8] 0.032 | IRAK-1-4 Inhibitor I 0.047

PYROXD1 (UniProt Q8WU10)
inactive: erlotinib 0.077 | [1] -0.108 | [2] 0.018 | [3] 0.002 | [4] -0.034 | [5] -0.098 | [6] -0.062 | [7] -0.003 | [8] 0.176 | IRAK-1-4 Inhibitor I 0.07

QKI (UniProt Q96PU8)
inactive: erlotinib -0.023 | [1] -0.018 | [2] -0.001 | [3] -0.005 | [4] 0.012 | [5] -0.029 | [6] 0.012 | [7] 0.005 | [8] -0.034 | IRAK-1-4 Inhibitor I 0.027

RAB27A (UniProt P51159)
inactive: erlotinib -0.045 | [1] 0.023 | [2] -0.014 | [3] 0.009 | [4] -0.009 | [5] -0.003 | [6] -0.025 | [7] -0.031 | [8] -0.015 | IRAK-1-4 Inhibitor I -0.049

RAD23B (UniProt P54727)
inactive: erlotinib 0.013 | [1] -0.025 | [2] 0.026 | [3] 0.009 | [4] -0.005 | [5] -0.001 | [6] 0.006 | [7] 0.016 | [8] 0.01 | IRAK-1-4 Inhibitor I 0

RAPGEF1 isoform 3 (UniProt Q13905)
inactive: erlotinib 0.017 | [1] -0.054 | [2] -0.028 | [3] -0.038 | [4] 0.003 | [5] -0.026 | [6] 0.082 | [7] -0.051 | [8] -0.02 | IRAK-1-4 Inhibitor I 0.02

RAB3IL1 (UniProt E9PK89)
inactive: erlotinib -0.016 | [1] -0.075 | [2] 0.124 | [3] 0.013 | [4] -0.048 | [5] -0.04 | [6] 0.093 | [7] -0.034 | [8] -0.12 | IRAK-1-4 Inhibitor I 0.109

Reference: the supplement of paper PMC10849652
